# Experimental data: PubChem BioAssay AID493014 (National Center for Advancing Translational Sciences (NCATS), 2011)
# About 170 (0.05%) of roughly 340,000 compounds were called active. Inconclusive means that the source gave no clear call. Such entries were picked first, then a sample of the others. Calls follow the shape of the dose curve; as a rule, active = well fitted inhibition curve with a large enough effect in the signal ratio, with a control signal flat (not every such curve was filed as active); inconclusive = small, poorly fitted or top-dose-only effect, or effect the other way, or a change in a side signal; inactive = flat fitted curve, though single readings scatter; the % refers to the signal ratio. Where the call is inconclusive, the potency comes from a doubtful curve fit.
# Experiment: qHTS Assay to Find Inhibitors of Chronic Active B-Cell Receptor Signaling;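 as to activity change, negative = inhibition: plate controls were basal doxycycline-induced cells for no effect and cells given 10 µM MG132 for full effect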
# Details: ABC-DLBCL IkBa-CBG/CBR reporter, luminescence ratio (green luciferase fused to IkBa over red control in TMD8 lymphoma cells), 4 h; activity change, negative = inhibition: at 46.1 µM (top of the series)
# Summary of the method: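 TMD8 human ABC-DLBCL cells with doxycycline-inducible IκBα–green luciferase fusion and unfused red luciferase, in 0.5% FBS medium; compounds up to 46 uM, 4 h at 37C. Green/red luminescence ratio, filter-overlap corrected, fitted to concentration-response curves.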
# Potency is read from the fitted curve at half-maximal effect.
Compound,"activity change, negative = inhibition",Potency
CC1(C)OC1COc1c2occc2cc2ccc(=O)oc12 (centres undefined),inactive: 2.75%,–
CCOC(=O)c1ccc(Nc2nc(C(=O)OCC)nc3ccccc23)cc1,inconclusive: 0.147%,–
O=[N+]([O-])c1ccc(N2CCCCC2)c2ncccc12,inconclusive: 12%,–
Cc1cc(OCC(=O)NC(Cc2ccc(Cl)cc2)C(=O)O)c2c3c(c(=O)oc2c1)CCCC3 (centres undefined),inactive: 24.2%,–
CCN(CC)C(=O)c1ccc(N(Cc2ccccc2)S(C)(=O)=O)cc1,inconclusive: 8.9%,–
Cn1cccc1/C=C1\C(=O)NC(=O)N(Cc2ccccc2Cl)C1=O,–,"inconclusive: 22.4 µM [falling, single point]"
CC(NCc1ccc(Cl)cc1Cl)C(O)c1ccccc1 (centres undefined),inconclusive: 17.8%,–
COC(=O)C1=C(c2ccc(-c3ccccc3)c(F)c2)C[C@@H]2CC[C@H]1N2C(=O)NCCO,inactive: -0.358%,–
O=C1NC(=O)C(=Cc2ccc(-c3cc(Cl)ccc3[N+](=O)[O-])o2)C(=O)N1,inactive: 2.03%,–
c1ccc(CCN2CCC(N3CCN(c4ccccc4)CC3)CC2)cc1,inactive: 1.6%,–
CC[C@@]1(O)C(=O)OCc2c1cc1n(c2=O)Cc2cc3ccccc3nc2-1,inconclusive: 19.6%,–
O=C1NC(=O)N(c2ccc(Cl)cc2)C(=O)/C1=C\c1ccc(Sc2nc3ccccc3[nH]2)o1,inactive: 7.81%,–
O=C/C=C/c1ccccc1,inactive: 4.51%,–
Oc1cccc(Nc2nc(-c3ccccc3)nc3ccccc23)c1,inconclusive: 3.58%,–
Cc1ccc(C(=O)C2CN3CCC2CC3)cc1 (centres undefined),inconclusive: 7.8%,–
CCN(CC)Cc1c[nH]c2ccccc12,–,"inconclusive: 8.91 µM [falling, partial curve]"
CNC(=O)Oc1cccc(-c2cn3cc(Cl)ccc3n2)c1,inconclusive: -15.5%,–
Nc1c(C(=O)NCC2CCCO2)c2nc3ccccc3nc2n1Cc1ccco1 (centres undefined),inconclusive: 19.7%,–
CC(C)(C)c1ccc(O)c(N=Cc2c(O)ccc3ccccc23)c1,inactive: -1.54%,–
CC(=O)Cc1c[nH]c2ccccc12,inconclusive: -16.9%,–
CCN1CCN(c2cc(N3CCCC3)c(F)cc2[N+](=O)[O-])CC1,–,"inconclusive: 32.6 µM [falling, partial curve, poor fit]"
CCN1CCN(C(=O)COc2ccc3oc4c(c3c2)CCCC4)CC1,inactive: 1.29%,–
CCCNc1nc(OC)nc(N2CC3CC(C2)c2cccc(=O)n2C3)n1 (centres undefined),inactive: 0.701%,–

Compound,"activity change, negative = inhibition",Potency
CN1CCN(c2ccc(/C=C3\C(=O)NC(=S)N(c4cccc(Br)c4)C3=O)o2)CC1,inconclusive: -0.875%,–
O=S(=O)(NC1CCCCC1)OCC(Cl)(Cl)Cl,–,"inconclusive: 6.31 µM [rising, partial curve, poor fit]"
O=C(N/N=C/c1c(O)n(Cc2ccc(F)cc2)c(=O)[nH]c1=O)c1ccccc1O,–,"inconclusive: 6.51 µM [falling, single point]"
C=CCn1c(O)c(/C=C2\C=Nc3ccccc32)c(=O)[nH]c1=O,inconclusive: -3.76%,–
COc1ccc(C(=O)C(Cc2ccccc2)N(C)C)cc1 (centres undefined),inactive: 7.94%,–
O=c1c2ccccc2ncn1-c1ccc([N+](=O)[O-])c(C(F)(F)F)c1,inconclusive: 4.06%,–
CC/C(CC(c1ccccc1)c1c(O)c2ccccc2oc1=O)=N\NC(N)=S (centres undefined),inconclusive: -7.59%,–
OCCNc1c2c(nc3ccccc13)CCCC2,inactive: 0.843%,–
CCOc1ccc(N2C(=O)NC(=O)/C(=C\c3ccccc3[N+](=O)[O-])C2=O)cc1,inactive: 7.35%,–
O=C(NC1CC2CCCC(C1)N2)c1ccccc1 (centres undefined),inactive: -3.06%,–
O=C(NCc1ccccc1)c1cccn(Cc2ccccc2)c1=O,inconclusive: -1.88%,–
CCOc1ccc(/C=N/Nc2ccccc2)cc1,inconclusive: 0.179%,–
CC(O)CNc1ccc([N+](=O)[O-])c2cccnc12 (centres undefined),inactive: -2.77%,–
Cc1cccc(Cn2cc(C=O)c3ccccc32)c1,inconclusive: -2.37%,–
C1=C(c2c[nH]c3ccccc23)CCNC1,inactive: -1.28%,–
CCOc1ccc(CN2CCCC(C(=O)c3ccccc3OC)C2)cc1 (centres undefined),inconclusive: -19.7%,–
COC(=O)C1=C(c2ccc(-c3ccccc3)c(F)c2)C[C@@H]2CC[C@H]1N2C(=O)NCCc1ccccc1,inconclusive: -1.56%,–
COc1ccc(-n2c(O)c(/C=C3\C=Nc4ccc(Br)cc43)c(=O)[nH]c2=O)cc1,inconclusive: 0.813%,–
O=c1[nH]c(=O)n(-c2cccc3ccccc23)c(O)c1/C=N/N1CCCCCC1,inconclusive: -0.21%,–
O=c1[nH]c(O)c(C=Nc2ccccc2Oc2ccccc2)c(=O)[nH]1,inconclusive: -8.22%,–
O=C1CN=C(c2ccccc2F)c2cc(Cl)ccc2N1,–,"inconclusive: 15.8 µM [falling, partial curve]"
C(=N\Nc1ccc2ccccc2n1)/c1ccc2c(c1)OCCO2,–,"inconclusive: 17.8 µM [falling, partial curve]"
CCN(CC)S(=O)(=O)c1cc(NC(=O)C(C)N2CC=C(c3ccccc3)CC2)ccc1C (centres undefined),inactive: 8.56%,–

Compound,"activity change, negative = inhibition",Potency
CCCCn1c(O)c(/C=C2\C=Nc3ccccc32)c(=O)[nH]c1=O,inconclusive: -15.8%,–
CN(C)C(=O)Oc1ccc2c(c1)O/C(=C\c1ccc(Cl)cc1)C2=O,inconclusive: 3.63%,–
C[C@H](O)[C@H]1CC[C@H]2[C@@H]3CCC4=CC(=O)CC[C@]4(C)[C@H]3CC[C@]12C,inconclusive: -11.5%,–
COC(=O)C1=C(c2c(C)noc2C)C[C@@H]2CC[C@H]1N2C(=O)N1CCCC1,inconclusive: -2.85%,–
COc1ccccc1N1CCN(Cc2cc(C)c(C)cc2O)CC1,inactive: -1.52%,–
O=C(c1cccs1)C1CN2CCC1CC2 (centres undefined),inconclusive: 3.54%,–
O=C1NC(=O)N(Cc2ccccc2)C(=O)/C1=C/c1cnn(-c2ccccc2)c1,–,"inconclusive: 1.26 µM [rising, full curve]"
Nc1ccc2cc(Br)ccc2c1,inconclusive: 17%,–
NP(=O)(OCCCc1ccccc1)Oc1ccccc1 (centres undefined),inconclusive: 15.2%,–
COC(=O)C1=C(c2ccc(F)cc2F)C[C@@H]2CC[C@H]1N2C(=O)N1CCC(C)CC1,inactive: 1.33%,–
CCOP(=O)(OCC)C1(O)C(=O)Nc2ccc(Br)cc21 (centres undefined),inactive: -1.37%,–
COc1ccc(P2(=O)Nc3ccccc3N2)cc1,–,"inconclusive: 35.5 µM [rising, partial curve, poor fit]"
CCCC/C(C)=C/[C@@H](NP(=O)(c1ccccc1)c1ccccc1)c1ccccc1,inconclusive: -3.88%,–
Cn1c(O)c(Cc2ccc(OCc3ccccc3)cc2)c(=O)n(C)c1=O,inconclusive: 10.2%,–
CC(c1ccccc1)n1cncc1C(=O)N1CCCC1=O (centres undefined),inactive: 3.34%,–
Nc1c(C(=O)NCCN2CCOCC2)c2nc3ccccc3nc2n1Cc1ccco1,inconclusive: 2.2%,–
CC(C)c1nnc(NC(=O)c2nc(S(=O)(=O)Cc3ccccc3)ncc2Cl)s1,inconclusive: 13.6%,–
O=C(CNC(=O)c1ccc(Br)cc1)Nc1ccc(Br)cc1C(=O)c1ccccc1,inactive: -2.57%,–
C=C1C(=O)O[C@@H]2C[C@@H](C)[C@@H]3C=CC(=O)[C@@]3(C)[C@@H](O)[C@H]12,inconclusive: 21.4%,–
Cn1c(O)c(/C=C/C=Nc2ccccc2)c(=O)n(C)c1=S,inactive: 25.2%,–
CC[N+]12CCC(CC1)C(C(O)(c1ccccc1)c1ccccc1)C2 (centres undefined),inactive: -0.537%,–
CCOC(=O)C1=C(C)OC(N)=C(C(=O)OCC)C12C(=O)Nc1ccc(Br)cc12 (centres undefined),–,"inconclusive: 18.4 µM [falling, partial curve, poor fit]"
COc1ccc(C(O)P(=O)(OCC(C)C)c2ccc(N(C)C)cc2)c(OC)c1 (centres undefined),inconclusive: 3.13%,–

Compound,"activity change, negative = inhibition",Potency
COc1cc([C@@H]2c3cc4c(cc3[C@@H](OC)[C@H]3COC(=O)[C@H]23)OCO4)cc(OC)c1O,–,"inconclusive: 17.8 µM [falling, single point]"
CCOC(=O)c1c(C)n(CC(O)CN2CCOCC2)c2cc(Br)c(OC)cc12 (centres undefined),inactive: 3.66%,–
CC(Cc1ccccc1)NC(=O)NC(C)Cc1ccccc1 (centres undefined),inactive: 11.7%,–
Oc1cccc2cccnc12,–,"inconclusive: 35.5 µM [falling, single point]"
CCC(C)NC(=O)c1cc2cc3ccc(OC)cc3nc2o1 (centres undefined),inconclusive: 1.33%,–
Cc1cc([N+](=O)[O-])ccc1N,inconclusive: 3.88%,–
CC(C)c1cccc(C(C)C)c1OC(=O)NC(=O)c1c(F)cccc1F,inconclusive: 5.37%,–
O=c1[nH]c(=S)n(C2CC2)c(O)c1/C=N/Nc1ccccc1,inconclusive: 290%,–
O=C(CCCOc1ccc(Cl)cc1Cl)N1CCC2(CC1)OCCO2,inconclusive: 4.99%,–
CCOc1ccc(-c2cc(C)[n+](CCO)c(-c3ccc(OCC)cc3)c2)cc1,–,"inconclusive: 10 µM [falling, partial curve]"
COc1ccc(C(CNC(=O)Cc2ccc(Cl)c(Cl)c2)N(C)C)cc1 (centres undefined),inactive: -21.7%,–
O=C(Nc1cccc(Cl)c1)c1cnc[nH]1,–,"inconclusive: 22.4 µM [falling, partial curve]"
CN1CCN(c2ccc(C(F)(F)F)cc2N)CC1,inconclusive: 13.3%,–
CC(C#N)CCC#N (centres undefined),inactive: -1.17%,–
Cc1cc(Cl)ccc1OCC(=O)O,inactive: 9.72%,–
Oc1ccc(Cl)cc1CN1CCN(Cc2ccccc2)CC1,inconclusive: -13.9%,–
O=P(Nc1ccccc1)(Nc1ccccc1)Oc1cccc(Cl)c1,inactive: -8.66%,–
COc1cccc(-n2c(-c3ccoc3)nc3ccccc3c2=O)c1,inconclusive: 11.2%,–
CCC(=NCc1ccc2c(c1)OCO2)c1c(O)n(C2CCCCC2)c(=O)[nH]c1=O,inconclusive: -8.05%,–
O=c1c2ccccc2nc(/C=C/c2ccccc2O)n1-c1ccccc1O,–,"inconclusive: 12.6 µM [falling, partial curve]"

# Part of the list above in a different format.
Compound | activity change, negative = inhibition | Potency
CNC(=O)Oc1cccc(-c2cn3cc(Cl)ccc3n2)c1 | inconclusive: -15.5% | –
Nc1c(C(=O)NCC2CCCO2)c2nc3ccccc3nc2n1Cc1ccco1 (centres undefined) | inconclusive: 19.7% | –
CC(C)(C)c1ccc(O)c(N=Cc2c(O)ccc3ccccc23)c1 | inactive: -1.54% | –
